From PMC3406077 (2012)
No constants are given. Whether binding was seen depends on the method and setting. Binding calls can cover weak binding; strength is not graded here.

B1: pallilysin (C24-P237) active site mutant AEXXH (H198A) (enzyme, UniProt O83732 24-237)
chain: CFQHGHVPPRRIPPHDTFGALPTAALPSNARDTAAHPSDTADNTSGSSTTTDPRSHGNAPPAPVGGAAQTHTQPPVQTAMRIALWNRATHGEQGALQHLLAGLWIQTEISPNSGDIHPLLFFDREHAEITFSRASVQEIFLVDSAHTHRKTVSFLTRNTAISSIRRRLEVTFESAEVIHVRAVEDVARLKIGSTSMWDGQYTRYHAGPASAPSP
B2: pallilysin (C24-P237) active site mutant HAXXH (E199A) (enzyme, UniProt O83732 24-237)
chain: CFQHGHVPPRRIPPHDTFGALPTAALPSNARDTAAHPSDTADNTSGSSTTTDPRSHGNAPPAPVGGAAQTHTQPPVQTAMRIALWNRATHGEQGALQHLLAGLWIQTEISPNSGDIHPLLFFDREHAEITFSRASVQEIFLVDSAHTHRKTVSFLTRNTAISSIRRRLEVTFESHAVIHVRAVEDVARLKIGSTSMWDGQYTRYHAGPASAPSP
B3: pallilysin (C24-P237) active site mutant HEXXA (H202A) (enzyme, UniProt O83732 24-237)
chain: CFQHGHVPPRRIPPHDTFGALPTAALPSNARDTAAHPSDTADNTSGSSTTTDPRSHGNAPPAPVGGAAQTHTQPPVQTAMRIALWNRATHGEQGALQHLLAGLWIQTEISPNSGDIHPLLFFDREHAEITFSRASVQEIFLVDSAHTHRKTVSFLTRNTAISSIRRRLEVTFESHEVIAVRAVEDVARLKIGSTSMWDGQYTRYHAGPASAPSP

biological target: plasminogen-depleted human fibrinogen (human); test: ELISA; fibrinogen or laminin immobilised (0.5 µg per well, Greiner plates); recombinant pallilysin 1-20 µg per well (mutants 20 µg per well) diluted in TBS; washes with TBS-0.1% Tween 20; adherent protein detected with anti-pallilysin rabbit serum and HRP goat anti-rabbit IgG, read at 492 nm; both …

Binder | binding
B1 | binds
B2 | binds
B3 | binds
